Assay results published in PMC4811514, “MULTIMERIN2 binds VEGF-A primarily via the carbohydrate chains exerting an angiostatic function and impairing tumor growth” (Oncotarget, 2015).
No constants are given. Whether binding was seen depends on the method and setting. For some assays here: Binding can be weak; no strength is given. For some assays here: Where a sequence is shown, tags or fusion partners need not be part of it.

Columns and labels:
Assay in all cases: ELISA; solid phase: 0.5 μg of recombinant MMRN2 or deletion mutants coated on the plate, blocked with 2% BSA in PBS; soluble VEGF-A (100 ng/well) or other cytokines in 0,2% BSA in PBS for 1 hour at 37°C; detected with specific anti-cytokine antibodies, ABTS, absorbance at 405 nm; both purified
[1] = target: T1, MMRN2 Δ3 deletion mutant (UniProt Q9H8L6)
T1 sequence: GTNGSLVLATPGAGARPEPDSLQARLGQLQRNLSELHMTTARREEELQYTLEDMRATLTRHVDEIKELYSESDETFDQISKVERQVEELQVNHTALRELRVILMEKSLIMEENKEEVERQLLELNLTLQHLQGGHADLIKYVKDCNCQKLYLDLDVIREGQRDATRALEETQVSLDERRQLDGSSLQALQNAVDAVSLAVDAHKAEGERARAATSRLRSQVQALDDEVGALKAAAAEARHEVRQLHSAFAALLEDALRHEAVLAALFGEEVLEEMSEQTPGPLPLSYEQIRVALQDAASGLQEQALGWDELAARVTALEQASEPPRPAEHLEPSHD

[2] = target: T2, MMRN2 Δ4 deletion mutant (UniProt Q9H8L6)
T2 sequence: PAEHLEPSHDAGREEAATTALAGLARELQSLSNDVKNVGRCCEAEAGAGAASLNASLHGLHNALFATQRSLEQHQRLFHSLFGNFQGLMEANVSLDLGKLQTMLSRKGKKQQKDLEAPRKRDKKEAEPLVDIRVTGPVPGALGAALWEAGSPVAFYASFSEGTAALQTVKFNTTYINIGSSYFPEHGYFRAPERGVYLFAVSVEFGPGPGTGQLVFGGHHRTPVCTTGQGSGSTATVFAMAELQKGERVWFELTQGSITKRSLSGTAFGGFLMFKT

[3] = target: T3, MMRN2 Δ1 deletion mutant (UniProt Q9H8L6)
T3 sequence: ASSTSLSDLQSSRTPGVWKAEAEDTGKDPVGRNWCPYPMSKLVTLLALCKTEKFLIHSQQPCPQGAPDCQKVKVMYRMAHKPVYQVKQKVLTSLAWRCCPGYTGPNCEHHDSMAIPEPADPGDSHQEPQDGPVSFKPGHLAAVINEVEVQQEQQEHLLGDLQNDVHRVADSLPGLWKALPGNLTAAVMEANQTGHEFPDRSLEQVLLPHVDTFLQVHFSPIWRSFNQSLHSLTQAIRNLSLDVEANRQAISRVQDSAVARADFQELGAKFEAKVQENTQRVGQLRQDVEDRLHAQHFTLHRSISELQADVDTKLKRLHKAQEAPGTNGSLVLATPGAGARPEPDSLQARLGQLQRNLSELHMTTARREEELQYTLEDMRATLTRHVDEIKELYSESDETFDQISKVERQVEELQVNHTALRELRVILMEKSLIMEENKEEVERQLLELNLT

[4] = target: T4, MMRN2 Δ2 deletion mutant (UniProt Q9H8L6)
T4 sequence (chain, glycosylated (carbohydrate chains)): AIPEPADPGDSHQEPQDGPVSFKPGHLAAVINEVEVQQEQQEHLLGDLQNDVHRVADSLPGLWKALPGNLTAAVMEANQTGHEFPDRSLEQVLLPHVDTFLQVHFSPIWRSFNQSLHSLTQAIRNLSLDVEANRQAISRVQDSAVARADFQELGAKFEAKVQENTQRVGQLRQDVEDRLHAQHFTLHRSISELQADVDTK

[5] = target: T5, MMRN2 Δ2 deletion mutant produced in the presence of tunicamycin (UniProt Q9H8L6)
T5 sequence (chain, N-linked glycosylation prevented by tunicamycin): T4 sequence (chain, glycosylated (carbohydrate chains))

binding [1]: no binding (tested: 100 ng/well)
binding [2]: no binding (tested: 100 ng/well)
binding [3]: binds
binding [4]: binds
binding [5]: no binding (tested: 100 ng/well)
Substance: VEGF-A165 (human) (ligand)
